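Genome-wide siRNA knockdown in TC32 Ewing sarcoma cells, comparing luciferase light from an NR0B1-promoter reporter with a CMV-promoter reporter 48 hours after transfection.
Each siRNA was applied at 20 nM.
A z-score of the log NR0B1-over-CMV signal, less the median of siRNAs with the same seed; more negative means a stronger specific loss of the NR0B1 reporter.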

The strongest results of the screen are mostly left out here.
Sequences are the guide (antisense) strand, without overhang.

strand: UUGAGGGUAAGAAUCAUUG
target gene: SART1
seed-corrected z-score: -1.203

strand: UUGUCUAUAAUCUGGAAGU
target gene: NDUFB3
seed-corrected z-score: -0.4215

strand: UGUUUAACAAGGGUUGAGG
target gene: ZNF736
seed-corrected z-score: -1.048

strand: UGAUCCUUUUGUUAUAGCC
target gene: RBM44
seed-corrected z-score: -0.7222

strand: UCAGGUUCACUUCACAGGC
target gene: TMPRSS6
seed-corrected z-score: -0.2256

strand: UCCUCGGUCUAUGAGAUCC
target gene: ATE1
seed-corrected z-score: 0.1805

strand: UAUCAAAGUGUGCAUCUGG
target gene: RPL31P57
seed-corrected z-score: 0.1187

strand: UUCAUAAUGUUUUAUACCC
target gene: ZNF510
seed-corrected z-score: 0.9398

strand: UUUGUGAUGACUCACUUCC
target gene: EIF4B
seed-corrected z-score: 0.3801

strand: UCAUGUUCAAACCAUGGAG
target gene: CHEK2P2
seed-corrected z-score: 0.9533

strand: ACAGCAAACACCACGAGGG
target gene: SLC6A17
seed-corrected z-score: 0.2163

strand: UUUAAUCCCAGCACGUCCU
target gene: SGF29
seed-corrected z-score: -0.3484

strand: AUAAUUACAGUAUUCUUGG
target gene: SPAG11B
seed-corrected z-score: 0.09306

strand: UUCUCGUUUCUGUUGAAUG
target gene: CLDN12
seed-corrected z-score: 0.4599

strand: AUUCUCGUCACUGUGCUCC
target gene: RGS13
seed-corrected z-score: -0.9001

strand: AAAGUUUAGGUCUCCACCC
target gene: ZNF524
seed-corrected z-score: 0.9277

strand: UUCUCUGCAAGGAACAGCA
target gene: UBALD1
seed-corrected z-score: -0.28

strand: UCUUCAUUAAUCGUGCAGC
target gene: ADAMTS16
seed-corrected z-score: -0.6947

strand: AAUCUUGUUCCAGAGGUGG
target gene: CAPN3
seed-corrected z-score: -0.6264

strand: ACUGGCUCUAGAAUGGAUG
target gene: TNFRSF12A
seed-corrected z-score: 0.05501

strand: UGAACAACGAAGCAAAGCG
target gene: NR1D1
seed-corrected z-score: 0.008283

strand: UGAGUGAUUAUUGAUUUCA
target gene: TBL1Y
seed-corrected z-score: 0.5133

strand: UGUUUCACCAGGCAUCUGG
target gene: RAB38
seed-corrected z-score: -0.1011

strand: UUCUUAUCUAGAGCUGUAU
target gene: CAMK1
seed-corrected z-score: 0.3386

strand: AUGUGAAGCAUUUCUAUGG
target gene: FAM21FP
seed-corrected z-score: -0.01768

strand: UUCUUGUAGUCCAAGUUGC
target gene: MYL2
seed-corrected z-score: 0.5225

strand: AACUUGACCACGAAGGGCU
target gene: DNASE1L2
seed-corrected z-score: -1.483

strand: UCUAUAGGCAAAGACAUGC
target gene: PAM
seed-corrected z-score: 0.02424

strand: UCCAGAGCAGGUUUUAUGC
target gene: MARK2P10
seed-corrected z-score: -0.3834

strand: AUAUCCACCAGUAACAACG
target gene: SLC16A4
seed-corrected z-score: 0.1001

strand: UAAACCAACCUCGUUCUCC
target gene: LINC01556
seed-corrected z-score: -0.8345

strand: AUAGAUACAGCUGUCGUUG
target gene: ANO3
seed-corrected z-score: 1.476

strand: UAGGGUGAGGUUGCGGUAG
target gene: B3GALT4
seed-corrected z-score: -0.3792

strand: AUCCUCACAAUUAUCGCUC
target gene: TF
seed-corrected z-score: 0.5506

strand: UUAAGUGUAUUUUUGUCCC
target gene: ZNF277
seed-corrected z-score: 0.03418

strand: UUCAAAGCAAAGAUGACCU
target gene: TRABD2A
seed-corrected z-score: -0.44

strand: UUCGUUCUUCAUACACUCG
target gene: LAMC1
seed-corrected z-score: 0.1244

strand: UUGUGGAUCAGCUGGAUAG
target gene: SMG8
seed-corrected z-score: -0.2439

strand: AAUGUUAAGGGCUCUAUUG
target gene: NADK2
seed-corrected z-score: 0.1161

strand: UUCUUGUAGUGGAACUUGC
target gene: ATG101
seed-corrected z-score: 0.6441

strand: UUUACUGCUUGAAUAGUUC
target gene: NNAT
seed-corrected z-score: 0.04717

strand: ACAGGAUCUGCAUUAGUGG
target gene: CP
seed-corrected z-score: 0.1382

strand: AUCUUGGUAGCAGUUGUUG
target gene: SLC6A4
seed-corrected z-score: -1.798

strand: UUUGUAAAACCGUAGUUCU
target gene: LIX1
seed-corrected z-score: 1.542

The results are deposited in PubChem (AID1159506; NCATS, 2015).